{
  "sequences": {"note": "Sequences of proteins named here, by UniProt entry; tags and fusion partners are left off. Residues count along the entry.", "UniProt Q96EB6, 2-747 limits assumed": "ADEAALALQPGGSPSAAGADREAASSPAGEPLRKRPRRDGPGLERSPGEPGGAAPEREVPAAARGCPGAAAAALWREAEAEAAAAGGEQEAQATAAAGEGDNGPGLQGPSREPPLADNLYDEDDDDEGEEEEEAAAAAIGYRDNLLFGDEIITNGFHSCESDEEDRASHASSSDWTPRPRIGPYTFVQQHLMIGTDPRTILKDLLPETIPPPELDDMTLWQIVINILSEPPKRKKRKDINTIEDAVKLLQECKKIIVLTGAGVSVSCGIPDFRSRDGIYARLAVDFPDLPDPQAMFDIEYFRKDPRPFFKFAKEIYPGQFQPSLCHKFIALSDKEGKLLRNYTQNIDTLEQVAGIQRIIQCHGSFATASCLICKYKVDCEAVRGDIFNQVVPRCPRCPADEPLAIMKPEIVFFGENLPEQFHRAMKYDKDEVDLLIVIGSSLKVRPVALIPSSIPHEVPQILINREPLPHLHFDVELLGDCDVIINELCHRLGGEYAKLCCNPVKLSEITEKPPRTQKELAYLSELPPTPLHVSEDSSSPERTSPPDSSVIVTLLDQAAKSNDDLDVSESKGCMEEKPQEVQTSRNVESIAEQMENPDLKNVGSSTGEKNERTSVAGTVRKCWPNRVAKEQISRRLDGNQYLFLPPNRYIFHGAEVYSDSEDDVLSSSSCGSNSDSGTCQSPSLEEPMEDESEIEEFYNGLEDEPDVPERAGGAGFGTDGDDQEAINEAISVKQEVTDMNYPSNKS"},
  "source": "paper PMC6925144",
  "about": "“A prospective compound screening contest identified broader inhibitors for Sirtuin 1” (Scientific Reports, 2019)",
  "note": "Whole data set: some 3,200 compounds, median “TSA(without NAD+) / Primary screening (TSA) / delta Tm (K)” near -0.07, cut for the highest 2% near 0.37. The list shows a part of the results.",
  "data": [
    {"target": "NAD-dependent deacetylase Sirtuin 1 (human, UniProt Q96EB6)", "experiment": "primary screen, delta tm", "set-up": "single well (n = 1)", "conditions": "10 µM", "description": "A total of 3,192 compounds extracted from the proposed lists were first screened by thermal shift assay (TSA), which determined a melting temperature shift (ΔTm) of Sirtuin 1 upon the addition of a test compound at a concentration of 10 µM (n = 1) with primary hit criteria of ΔTm > 0.45 K or ΔTm < −1.5 K. Primary hits (48 compounds) were retested in the same assay at three concentrations (5, 10, 20 µM, n = 4) for hit confirmation and for dose-dependency check. Secondary hits (41 compounds) were checked their selectivity for Sirtuin 1 based on counterscreening on unrelated protein targets (bovine carbonic anhydrase (CA) and recombinant SH2 domain of hABL1 kinase (ABL1)) at three different concentrations (5, 10, 20 µM, n = 4), which yielded 38 hit compounds, hereafter referred to as TSA hits. The TSA screening above was conducted in the absence of NAD+.", "units": {"TSA(without NAD+) / Primary screening (TSA) / delta Tm (K)": "K"}, "values": [
      {"molecule": "CC(=O)N(c1nn(CN2CCN(c3ccc(C(N)=O)cn3)CC2)c(=S)s1)C1CC1", "TSA(without NAD+) / Primary screening (TSA) / delta Tm (K)": -0.23},
      {"molecule": "O=C1CCc2c(OCc3cc(=O)n4ccccc4n3)cccc21", "TSA(without NAD+) / Primary screening (TSA) / delta Tm (K)": -0.17},
      {"molecule": "Cc1ccc(-c2cc(C(=O)Nc3ccc(C(N)=O)cc3)c3ccccc3n2)c(C)c1", "TSA(without NAD+) / Primary screening (TSA) / delta Tm (K)": -0.22},
      {"molecule": "O=C(CCl)c1c(-c2ccccc2)[nH]c2ccccc12", "TSA(without NAD+) / Primary screening (TSA) / delta Tm (K)": -0.04},
      {"molecule": "COC(=O)c1cc(Br)ccc1NC(=O)c1cccc(S(=O)(=O)N(C)c2ccc(C)cc2)c1", "TSA(without NAD+) / Primary screening (TSA) / delta Tm (K)": -0.01},
      {"molecule": "COc1cccc(-c2nc(CSc3nnc(CN4CCCCC4)n3-c3ccc(F)cc3)cs2)c1", "TSA(without NAD+) / Primary screening (TSA) / delta Tm (K)": -0.11},
      {"molecule": "COc1cccc(C(=O)C2=C(O)C(=O)N(CCCN3CCOCC3)C2c2ccccc2)c1", "note": "(stereo not shown)", "TSA(without NAD+) / Primary screening (TSA) / delta Tm (K)": -0.11},
      {"molecule": "CC(C(=O)NC(c1ccccc1)C1CC1)n1cnc2ccccc21", "note": "(stereo not shown)", "TSA(without NAD+) / Primary screening (TSA) / delta Tm (K)": -0.08},
      {"molecule": "O=C(Oc1ccc2oc3ccccc3c2c1)C1CC1", "TSA(without NAD+) / Primary screening (TSA) / delta Tm (K)": -0.17},
      {"molecule": "CC(C)c1noc2ncc(C(=O)Nc3cc(C(N)=O)ccc3N3CCCC3)cc12", "TSA(without NAD+) / Primary screening (TSA) / delta Tm (K)": 0.06},
      {"molecule": "O=C(O)[C@@H]1C[C@H]1C(=O)O", "TSA(without NAD+) / Primary screening (TSA) / delta Tm (K)": -0.07},
      {"molecule": "O=C(CCN1C(=O)NC2(CCCCC2)C1=O)NC1C2CC3CC(C2)CC1C3", "note": "(stereo not shown)", "TSA(without NAD+) / Primary screening (TSA) / delta Tm (K)": 0.07},
      {"molecule": "O=c1oc2ccc3ccccc3c2cc1-c1nc2ccccc2[nH]1", "TSA(without NAD+) / Primary screening (TSA) / delta Tm (K)": -0.21},
      {"molecule": "O=S1(=O)CCC(CSc2nnc(NCC3CCCO3)s2)CC1", "note": "(stereo not shown)", "TSA(without NAD+) / Primary screening (TSA) / delta Tm (K)": -0.18},
      {"molecule": "Cc1ccc(N2C(=O)CN=C2S)cc1", "TSA(without NAD+) / Primary screening (TSA) / delta Tm (K)": -0.14},
      {"molecule": "O=C(O)c1ccc2[nH]c3c(c2c1)CCCCC3", "TSA(without NAD+) / Primary screening (TSA) / delta Tm (K)": -0.02},
      {"molecule": "O=S1(=O)CCC(N2CCN(c3ncnc4c3oc3ccccc34)CC2)C1", "note": "(stereo not shown)", "TSA(without NAD+) / Primary screening (TSA) / delta Tm (K)": -0.11},
      {"molecule": "NC(=O)c1cc(NC(=O)c2nn(-c3ccc(F)cc3)c3c2CCCC3)ccc1Cl", "TSA(without NAD+) / Primary screening (TSA) / delta Tm (K)": -0.04},
      {"molecule": "COCCNc1nnc(SCc2cc(=O)oc3c(C)c(O)ccc23)s1", "TSA(without NAD+) / Primary screening (TSA) / delta Tm (K)": -0.74},
      {"molecule": "O=C1NC(=O)C2(CCN(C(=O)C34CC5CC(CC(Br)(C5)C3)C4)CC2)N1", "TSA(without NAD+) / Primary screening (TSA) / delta Tm (K)": -0.08},
      {"molecule": "Cc1cccc(C(=O)Nc2ccccc2Oc2ccccc2)c1", "TSA(without NAD+) / Primary screening (TSA) / delta Tm (K)": -0.13},
      {"molecule": "Cc1cccc(NC(=O)CN2CCN(C(=O)c3ccccc3Oc3ccccc3)CC2)c1C", "TSA(without NAD+) / Primary screening (TSA) / delta Tm (K)": -0.12},
      {"molecule": "NC(=O)C1CCN(c2cc(N3CCCC3)ncn2)C1", "note": "(stereo not shown)", "TSA(without NAD+) / Primary screening (TSA) / delta Tm (K)": -0.02},
      {"molecule": "CC(CNC(=O)c1cccc(Nc2ncccn2)c1)N1CCOCC1", "note": "(stereo not shown)", "TSA(without NAD+) / Primary screening (TSA) / delta Tm (K)": 0.13},
      {"molecule": "Cc1ccc(N(C)S(=O)(=O)c2cccc(C(N)=O)c2)cc1", "TSA(without NAD+) / Primary screening (TSA) / delta Tm (K)": -0.11},
      {"molecule": "CC(OC(=O)CC(NC(=O)OC(C)(C)C)C1CC1)c1cnc2ccccc2c1", "note": "(stereo not shown)", "TSA(without NAD+) / Primary screening (TSA) / delta Tm (K)": -0.12},
      {"molecule": "CC(C)C(C)Nc1ncnc2ccsc12", "note": "(stereo not shown)", "TSA(without NAD+) / Primary screening (TSA) / delta Tm (K)": -0.22},
      {"molecule": "Cc1ccc(C23CC4CC(CC(C(=O)OCC(=O)NC(=O)NCc5ccccc5)(C4)C2)C3)cc1", "TSA(without NAD+) / Primary screening (TSA) / delta Tm (K)": 0.29},
      {"molecule": "Cc1cc(N2CCN(c3ncc(C(F)(F)F)cc3Cl)CC2)n2ncnc2n1", "TSA(without NAD+) / Primary screening (TSA) / delta Tm (K)": 0.22},
      {"molecule": "COc1cccc(C2C(C(=O)c3ccc(F)cc3)=C(O)C(=O)N2CCCN2CCOCC2)c1OC", "note": "(stereo not shown)", "TSA(without NAD+) / Primary screening (TSA) / delta Tm (K)": -0.03},
      {"molecule": "O=C1NC(=S)NC(=O)C1=Cc1cc2ccccc2[nH]c1=O", "TSA(without NAD+) / Primary screening (TSA) / delta Tm (K)": 0.07},
      {"molecule": "O=C1/C(=C\\c2ccc(Br)cc2F)Cc2ccccc21", "TSA(without NAD+) / Primary screening (TSA) / delta Tm (K)": -0.28},
      {"molecule": "NCC1(O)CCC1", "TSA(without NAD+) / Primary screening (TSA) / delta Tm (K)": -0.18},
      {"molecule": "CCOC(=O)N1CCN(CCC(=O)Nc2ccc(C(C)=O)cc2)CC1", "TSA(without NAD+) / Primary screening (TSA) / delta Tm (K)": -0.03},
      {"molecule": "NC(=O)c1ccccc1NC(=O)C1CC1", "TSA(without NAD+) / Primary screening (TSA) / delta Tm (K)": -0.13},
      {"molecule": "O=C(COC(=O)Cc1coc2cc(O)ccc12)Nc1cccc2ccccc12", "TSA(without NAD+) / Primary screening (TSA) / delta Tm (K)": -0.08},
      {"molecule": "COc1ccc(N(C)S(=O)(=O)c2cccc(C(=O)NNC(=O)OC(C)(C)C)c2)cc1", "TSA(without NAD+) / Primary screening (TSA) / delta Tm (K)": -0.21},
      {"molecule": "O=C(CSc1nnc(NCc2ccco2)s1)Nc1nc2c(F)c(F)c(F)cc2s1", "TSA(without NAD+) / Primary screening (TSA) / delta Tm (K)": 0.08},
      {"molecule": "O=C(NNC1c2ccccc2-c2ccccc21)c1ccc2ccccc2n1", "TSA(without NAD+) / Primary screening (TSA) / delta Tm (K)": -0.18},
      {"molecule": "COC(=O)/C=C1/NC(=O)CS1", "TSA(without NAD+) / Primary screening (TSA) / delta Tm (K)": -0.03},
      {"molecule": "CCOC(=O)c1cn[nH]c1N", "TSA(without NAD+) / Primary screening (TSA) / delta Tm (K)": -0.13},
      {"molecule": "COC(=O)c1ccc2[nH]c(=O)[nH]c2c1", "TSA(without NAD+) / Primary screening (TSA) / delta Tm (K)": -0.18},
      {"molecule": "c1ccc2c(c1)oc1c(N3CCCC3)ncnc12", "TSA(without NAD+) / Primary screening (TSA) / delta Tm (K)": -0.11},
      {"molecule": "NC(=O)CC(Nc1ncncc1Br)C1CCCCC1", "note": "(stereo not shown)", "TSA(without NAD+) / Primary screening (TSA) / delta Tm (K)": -0.23},
      {"molecule": "Cc1[nH]c2ccccc2c1C1CCN(C(=O)c2n[nH]c3c2CCC3)CC1", "TSA(without NAD+) / Primary screening (TSA) / delta Tm (K)": 0.15},
      {"molecule": "Cn1cc(S(=O)(=O)NCC2CCN(c3ccc(F)cc3)C2)cc1C(=O)O", "note": "(stereo not shown)", "TSA(without NAD+) / Primary screening (TSA) / delta Tm (K)": -0.08},
      {"molecule": "CS(=O)(=O)Nc1ccc(C(=O)/C=C/c2ccc3c(c2)CCO3)cc1", "TSA(without NAD+) / Primary screening (TSA) / delta Tm (K)": -0.05},
      {"molecule": "CCc1cc2c(N3CCC(C(N)=O)CC3)nc(C)nc2s1", "TSA(without NAD+) / Primary screening (TSA) / delta Tm (K)": -0.22},
      {"molecule": "Cc1ccc(-c2nnc(NC(=O)COc3cc(C)cc(C)c3)[nH]2)cc1", "TSA(without NAD+) / Primary screening (TSA) / delta Tm (K)": -0.08},
      {"molecule": "CC(=O)Nc1ccc(CNCc2ccccc2CN2CCCC2)cc1", "TSA(without NAD+) / Primary screening (TSA) / delta Tm (K)": -0.12},
      {"molecule": "CCOCC(NC(=O)N1CCN(C(=O)c2cc3ccccc3[nH]2)CC1)C(C)C", "note": "(stereo not shown)", "TSA(without NAD+) / Primary screening (TSA) / delta Tm (K)": -0.11},
      {"molecule": "COc1ccccc1NC(=O)COc1ccc(C(=O)OCC(=O)NC23CC4CC(CC(C4)C2)C3)cc1OC", "TSA(without NAD+) / Primary screening (TSA) / delta Tm (K)": 0.08},
      {"molecule": "CC1CN(C(=O)/C=C/c2ccc(C(=O)O)cc2)CC(C)(C)O1", "note": "(stereo not shown)", "TSA(without NAD+) / Primary screening (TSA) / delta Tm (K)": 0.16},
      {"molecule": "Cc1nc(/C=C/C(=O)NC(C)C(=O)NCc2ccco2)cs1", "note": "(stereo not shown)", "TSA(without NAD+) / Primary screening (TSA) / delta Tm (K)": -0.02},
      {"molecule": "CC(N)C(N)=O", "note": "(stereo not shown)", "TSA(without NAD+) / Primary screening (TSA) / delta Tm (K)": -0.23},
      {"molecule": "O=C(Cc1ccc(-c2ccccc2)cc1)Nc1cccc(S(=O)(=O)N2CCOCC2)c1", "TSA(without NAD+) / Primary screening (TSA) / delta Tm (K)": 0.07},
      {"molecule": "N#Cc1c(NC(=O)c2cnc3ccccc3n2)sc2c1CCCCC2", "TSA(without NAD+) / Primary screening (TSA) / delta Tm (K)": -0.18},
      {"molecule": "COC1CCCC1NC(=O)Cc1sc(S)nc1C", "note": "(stereo not shown)", "TSA(without NAD+) / Primary screening (TSA) / delta Tm (K)": -0.22},
      {"molecule": "Cc1ccc(N(C)S(=O)(=O)c2cccc(C(=O)OCc3nnsc3Cl)c2)cc1", "TSA(without NAD+) / Primary screening (TSA) / delta Tm (K)": -0.05},
      {"molecule": "Cn1ccc(NC(=O)C2CC(=O)N(c3ccc4c(c3)OCO4)C2)n1", "note": "(stereo not shown)", "TSA(without NAD+) / Primary screening (TSA) / delta Tm (K)": -0.13},
      {"molecule": "COc1ccc(CN2C(=O)/C(=C/NNC(=O)CC34CC5CC(CC(C5)C3)C4)c3ccccc3C2=O)cc1", "TSA(without NAD+) / Primary screening (TSA) / delta Tm (K)": 0.09}
    ]}
  ]
}
